The results in this text go back to article PMC10820798.

Protein sequences, listed by entry. Tags and fused reporters are not part of them.
UniProt Q8TCU4: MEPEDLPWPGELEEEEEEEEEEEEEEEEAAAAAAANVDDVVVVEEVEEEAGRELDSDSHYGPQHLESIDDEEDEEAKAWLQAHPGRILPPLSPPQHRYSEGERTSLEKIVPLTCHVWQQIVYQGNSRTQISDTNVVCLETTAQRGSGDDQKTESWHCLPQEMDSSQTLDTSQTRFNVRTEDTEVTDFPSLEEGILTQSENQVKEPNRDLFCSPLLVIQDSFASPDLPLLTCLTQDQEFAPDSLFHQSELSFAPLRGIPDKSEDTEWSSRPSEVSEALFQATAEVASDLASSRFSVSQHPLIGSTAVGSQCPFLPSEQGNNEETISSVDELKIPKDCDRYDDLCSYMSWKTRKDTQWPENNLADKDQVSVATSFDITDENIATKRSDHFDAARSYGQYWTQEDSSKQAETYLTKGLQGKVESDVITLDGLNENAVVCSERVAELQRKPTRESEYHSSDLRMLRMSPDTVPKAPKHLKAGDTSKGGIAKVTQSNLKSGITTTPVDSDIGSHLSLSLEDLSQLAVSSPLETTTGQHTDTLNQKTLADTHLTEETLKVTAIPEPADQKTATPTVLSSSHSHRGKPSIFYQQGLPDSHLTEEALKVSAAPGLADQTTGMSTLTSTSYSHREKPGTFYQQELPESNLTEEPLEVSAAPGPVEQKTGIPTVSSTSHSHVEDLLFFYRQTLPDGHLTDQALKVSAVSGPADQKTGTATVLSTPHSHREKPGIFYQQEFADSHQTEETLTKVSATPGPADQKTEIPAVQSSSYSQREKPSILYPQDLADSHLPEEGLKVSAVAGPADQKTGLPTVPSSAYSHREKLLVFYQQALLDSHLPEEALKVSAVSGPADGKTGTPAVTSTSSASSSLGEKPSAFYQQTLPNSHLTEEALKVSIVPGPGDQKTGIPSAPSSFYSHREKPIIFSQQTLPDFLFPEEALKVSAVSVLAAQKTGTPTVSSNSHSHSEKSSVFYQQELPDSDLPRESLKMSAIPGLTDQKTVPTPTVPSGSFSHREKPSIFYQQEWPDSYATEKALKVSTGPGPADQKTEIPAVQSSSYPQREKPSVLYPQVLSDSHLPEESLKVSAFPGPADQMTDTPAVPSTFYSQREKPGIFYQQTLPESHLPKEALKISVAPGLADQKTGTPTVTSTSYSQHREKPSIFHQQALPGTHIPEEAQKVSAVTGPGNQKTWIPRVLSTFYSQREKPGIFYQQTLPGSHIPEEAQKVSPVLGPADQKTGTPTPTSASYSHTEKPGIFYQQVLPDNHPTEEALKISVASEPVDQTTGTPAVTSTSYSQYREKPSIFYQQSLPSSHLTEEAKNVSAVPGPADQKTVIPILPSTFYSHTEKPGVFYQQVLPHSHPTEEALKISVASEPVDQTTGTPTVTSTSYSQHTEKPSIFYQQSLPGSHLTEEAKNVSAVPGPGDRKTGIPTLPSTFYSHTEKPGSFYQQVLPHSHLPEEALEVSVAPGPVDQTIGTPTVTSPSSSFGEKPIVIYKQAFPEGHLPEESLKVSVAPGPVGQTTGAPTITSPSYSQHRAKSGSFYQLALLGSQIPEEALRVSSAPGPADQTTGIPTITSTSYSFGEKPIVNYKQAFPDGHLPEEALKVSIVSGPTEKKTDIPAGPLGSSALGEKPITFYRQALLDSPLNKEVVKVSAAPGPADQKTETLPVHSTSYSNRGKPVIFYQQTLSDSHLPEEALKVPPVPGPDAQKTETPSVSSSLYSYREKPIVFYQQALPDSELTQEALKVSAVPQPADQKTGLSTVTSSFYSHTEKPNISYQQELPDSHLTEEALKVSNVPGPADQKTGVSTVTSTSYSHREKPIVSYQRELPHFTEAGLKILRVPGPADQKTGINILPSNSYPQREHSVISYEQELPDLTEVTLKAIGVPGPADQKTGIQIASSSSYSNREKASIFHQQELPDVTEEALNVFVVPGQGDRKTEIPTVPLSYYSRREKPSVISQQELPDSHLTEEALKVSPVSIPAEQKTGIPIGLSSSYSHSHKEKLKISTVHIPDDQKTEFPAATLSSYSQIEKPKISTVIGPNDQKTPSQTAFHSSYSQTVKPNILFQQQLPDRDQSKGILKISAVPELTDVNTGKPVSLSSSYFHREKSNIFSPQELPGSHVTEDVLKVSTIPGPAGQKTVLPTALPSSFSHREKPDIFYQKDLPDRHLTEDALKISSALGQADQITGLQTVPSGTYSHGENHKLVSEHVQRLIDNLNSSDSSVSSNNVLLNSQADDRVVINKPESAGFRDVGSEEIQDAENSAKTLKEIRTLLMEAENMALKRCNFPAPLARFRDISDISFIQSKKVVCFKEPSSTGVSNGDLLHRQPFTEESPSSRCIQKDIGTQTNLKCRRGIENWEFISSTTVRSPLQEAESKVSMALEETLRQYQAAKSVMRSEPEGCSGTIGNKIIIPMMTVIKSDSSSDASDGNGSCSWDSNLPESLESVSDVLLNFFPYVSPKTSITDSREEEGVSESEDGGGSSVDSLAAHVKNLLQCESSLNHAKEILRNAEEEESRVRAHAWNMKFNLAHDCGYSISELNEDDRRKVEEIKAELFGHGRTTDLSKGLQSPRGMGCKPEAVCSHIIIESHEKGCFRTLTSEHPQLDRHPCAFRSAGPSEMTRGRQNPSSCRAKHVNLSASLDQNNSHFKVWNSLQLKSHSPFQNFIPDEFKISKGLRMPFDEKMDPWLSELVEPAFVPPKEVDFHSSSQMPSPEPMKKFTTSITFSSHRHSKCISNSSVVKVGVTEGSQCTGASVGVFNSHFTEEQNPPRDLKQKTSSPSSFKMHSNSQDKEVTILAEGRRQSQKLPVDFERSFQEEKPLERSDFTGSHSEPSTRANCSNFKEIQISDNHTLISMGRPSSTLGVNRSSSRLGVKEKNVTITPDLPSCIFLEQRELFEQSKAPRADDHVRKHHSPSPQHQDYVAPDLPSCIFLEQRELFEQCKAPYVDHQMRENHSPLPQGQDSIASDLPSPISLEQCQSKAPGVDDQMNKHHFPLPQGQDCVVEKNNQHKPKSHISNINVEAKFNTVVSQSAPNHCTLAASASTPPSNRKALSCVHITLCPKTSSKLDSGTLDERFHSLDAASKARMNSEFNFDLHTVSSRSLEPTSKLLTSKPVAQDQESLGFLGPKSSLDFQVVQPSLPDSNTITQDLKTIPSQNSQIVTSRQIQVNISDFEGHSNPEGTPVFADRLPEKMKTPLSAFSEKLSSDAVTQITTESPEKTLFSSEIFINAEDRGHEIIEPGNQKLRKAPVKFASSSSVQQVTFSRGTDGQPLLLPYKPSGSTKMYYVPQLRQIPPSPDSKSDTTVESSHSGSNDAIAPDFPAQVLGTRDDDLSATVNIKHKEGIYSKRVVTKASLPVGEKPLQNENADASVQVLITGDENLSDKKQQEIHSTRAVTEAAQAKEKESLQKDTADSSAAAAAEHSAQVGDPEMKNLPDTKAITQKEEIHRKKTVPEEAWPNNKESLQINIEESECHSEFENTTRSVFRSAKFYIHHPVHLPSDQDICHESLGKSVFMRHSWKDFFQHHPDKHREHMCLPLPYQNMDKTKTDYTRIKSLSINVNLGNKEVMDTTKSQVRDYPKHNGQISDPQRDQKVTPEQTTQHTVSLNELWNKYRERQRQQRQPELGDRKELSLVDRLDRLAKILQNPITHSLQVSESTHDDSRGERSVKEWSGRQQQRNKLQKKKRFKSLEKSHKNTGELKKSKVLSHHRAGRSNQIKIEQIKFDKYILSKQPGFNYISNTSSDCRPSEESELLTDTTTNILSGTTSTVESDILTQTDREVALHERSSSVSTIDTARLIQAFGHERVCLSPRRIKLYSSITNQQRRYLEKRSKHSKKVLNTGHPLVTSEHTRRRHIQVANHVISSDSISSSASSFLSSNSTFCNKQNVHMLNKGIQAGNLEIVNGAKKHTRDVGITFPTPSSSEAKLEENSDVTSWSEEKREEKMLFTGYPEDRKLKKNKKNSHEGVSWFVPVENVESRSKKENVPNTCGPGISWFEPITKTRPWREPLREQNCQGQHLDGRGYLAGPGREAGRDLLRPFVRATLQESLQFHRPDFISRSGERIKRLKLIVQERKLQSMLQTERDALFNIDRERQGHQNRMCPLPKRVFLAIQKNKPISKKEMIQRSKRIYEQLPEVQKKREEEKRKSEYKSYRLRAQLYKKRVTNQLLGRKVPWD

In assay [1] the target is T1, N-terminal Strep/FLAG-tagged CEP70 full-length (NSF-CEP70) (human) (UniProt Q8NHQ1).
T1 sequence: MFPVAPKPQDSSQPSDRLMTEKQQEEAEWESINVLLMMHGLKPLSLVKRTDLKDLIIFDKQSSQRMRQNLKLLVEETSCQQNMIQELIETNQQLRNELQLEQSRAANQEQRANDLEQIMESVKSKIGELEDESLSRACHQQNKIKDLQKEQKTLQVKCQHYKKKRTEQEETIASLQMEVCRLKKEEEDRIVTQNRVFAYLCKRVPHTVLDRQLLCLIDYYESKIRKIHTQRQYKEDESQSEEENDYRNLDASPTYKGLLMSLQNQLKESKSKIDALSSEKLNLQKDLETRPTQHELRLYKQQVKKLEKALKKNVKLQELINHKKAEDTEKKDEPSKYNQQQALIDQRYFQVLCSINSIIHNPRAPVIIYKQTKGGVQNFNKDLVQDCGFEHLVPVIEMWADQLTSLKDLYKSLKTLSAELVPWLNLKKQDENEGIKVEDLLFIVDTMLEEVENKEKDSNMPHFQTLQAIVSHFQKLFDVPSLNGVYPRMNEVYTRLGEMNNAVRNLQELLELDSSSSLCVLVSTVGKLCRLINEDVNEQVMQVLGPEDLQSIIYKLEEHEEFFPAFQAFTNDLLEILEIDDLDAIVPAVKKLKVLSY
As to the kind of experiment: affinity purification with mass spectrometry; FLAG agarose on lysates (0.5% NP40) of HEK293T transfected with NSF-CEP70 full-length, CC1-2 or TPR-CT; 1 h at 4 °C; on-bead digest; NSF-RAF1 as control; six replicates; label-free quantification, Tier 1/Tier 2 statistics.

Assay [2] addresses T2, NSF-CEP70 CC1-2 fragment (75-326 aa) (human) (UniProt Q8NHQ1).
T2 sequence: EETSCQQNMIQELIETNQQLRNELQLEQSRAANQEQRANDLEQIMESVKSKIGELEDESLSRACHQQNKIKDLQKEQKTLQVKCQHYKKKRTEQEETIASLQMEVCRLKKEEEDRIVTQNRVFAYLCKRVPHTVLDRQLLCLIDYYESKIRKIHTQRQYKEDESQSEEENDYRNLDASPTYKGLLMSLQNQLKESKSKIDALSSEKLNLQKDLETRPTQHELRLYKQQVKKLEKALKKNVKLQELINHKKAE
The assay is described as above.

In assay [3] the target is T3, NSF-CEP70 TPR-CT fragment (327-597 aa) (human) (UniProt Q8NHQ1).
T3 sequence: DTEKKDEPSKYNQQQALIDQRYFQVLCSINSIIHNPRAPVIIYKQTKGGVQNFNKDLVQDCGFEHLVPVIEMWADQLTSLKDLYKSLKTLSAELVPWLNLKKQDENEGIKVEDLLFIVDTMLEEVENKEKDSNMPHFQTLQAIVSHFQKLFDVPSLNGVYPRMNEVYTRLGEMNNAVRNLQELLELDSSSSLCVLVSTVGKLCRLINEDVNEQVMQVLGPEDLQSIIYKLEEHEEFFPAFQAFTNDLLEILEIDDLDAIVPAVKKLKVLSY
The description is as above.

Assay [4] concerns the target endogenously sfGFP-tagged ALMS1 (ALMS1-sfGFP) (human (endogenous in HEK293T)) (UniProt Q8TCU4). The experiment in a line: affinity purification with mass spectrometry; GFP-Trap agarose on lysates (0.5% NP40) of three HEK293T single clones with endogenous ALMS1-sfGFP, starved overnight; 1 h at 4 °C; untagged HEK293T as control; six replicates; label-free quantification, Tier 1/Tier 2 statistics.

No constants are given. Whether binding was seen depends on the method and setting. In cells and extracts the contact can be indirect. A yes stands for co-enrichment or nearness to the bait. Other partners may have been found. For some of these results: No binding means not detected with the bait. For some of these results: Sequences can lack the tags named with a protein.

For “ALMS1, endogenous (untagged) (from UniProt Q8TCU4 1-4168)”, the binding entry in assay [1] is “binds”; in assay [2], “no binding”; in assay [3], “binds”.

B1: centrosomal protein 70 kDa (CEP70), endogenous (protein, UniProt Q8NHQ1 1-597)
chain: MFPVAPKPQDSSQPSDRLMTEKQQEEAEWESINVLLMMHGLKPLSLVKRTDLKDLIIFDKQSSQRMRQNLKLLVEETSCQQNMIQELIETNQQLRNELQLEQSRAANQEQRANDLEQIMESVKSKIGELEDESLSRACHQQNKIKDLQKEQKTLQVKCQHYKKKRTEQEETIASLQMEVCRLKKEEEDRIVTQNRVFAYLCKRVPHTVLDRQLLCLIDYYESKIRKIHTQRQYKEDESQSEEENDYRNLDASPTYKGLLMSLQNQLKESKSKIDALSSEKLNLQKDLETRPTQHELRLYKQQVKKLEKALKKNVKLQELINHKKAEDTEKKDEPSKYNQQQALIDQRYFQVLCSINSIIHNPRAPVIIYKQTKGGVQNFNKDLVQDCGFEHLVPVIEMWADQLTSLKDLYKSLKTLSAELVPWLNLKKQDENEGIKVEDLLFIVDTMLEEVENKEKDSNMPHFQTLQAIVSHFQKLFDVPSLNGVYPRMNEVYTRLGEMNNAVRNLQELLELDSSSSLCVLVSTVGKLCRLINEDVNEQVMQVLGPEDLQSIIYKLEEHEEFFPAFQAFTNDLLEILEIDDLDAIVPAVKKLKVLSY
Turning to B1, in assay [4], the binding entry was “binds”.

B2: HDAC10 (protein, UniProt Q969S8 1-669)
chain: MGTALVYHEDMTATRLLWDDPECEIERPERLTAALDRLRQRGLEQRCLRLSAREASEEELGLVHSPEYVSLVRETQVLGKEELQALSGQFDAIYFHPSTFHCARLAAGAGLQLVDAVLTGAVQNGLALVRPPGHHGQRAAANGFCVFNNVAIAAAHAKQKHGLHRILVVDWDVHHGQGIQYLFEDDPSVLYFSWHRYEHGRFWPFLRESDADAVGRGQGLGFTVNLPWNQVGMGNADYVAAFLHLLLPLAFEFDPELVLVSAGFDSAIGDPEGQMQATPECFAHLTQLLQVLAGGRVCAVLEGGYHLESLAESVCMTVQTLLGDPAPPLSGPMAPCQSALESIQSARAAQAPHWKSLQQQDVTAVPMSPSSHSPEGRPPPLLPGGPVCKAAASAPSSLLDQPCLCPAPSVRTAVALTTPDITLVLPPDVIQQEASALREETEAWARPHESLAREEALTALGKLLYLLDGMLDGQVNSGIAATPASAAAATLDVAVRRGLSHGAQRLLCVALGQLDRPPDLAHDGRSLWLNIRGKEAAALSMFHVSTPLPVMTGGFLSCILGLVLPLAYGFQPDLVLVALGPGHGLQGPHAALLAAMLRGLAGGRVLALLEENSTPQLAGILARVLNGEAPPSLGPSSVASPEDVQALMYLRGQLEPQWKMLQCHPHLVA
Consider B2, for which the binding entry in assay [1] is listed as “no binding”; in assay [4], “binds”.

B3: TCEB3 (protein, UniProt Q14241 1-772)
chain: MAAESALQVVEKLQARLAANPDPKKLLKYLKKLSTLPITVDILAETGVGKTVNSLRKHEHVGSFARDLVAQWKKLVPVERNAEPDEQDFEKSNSRKRPRDALQKEEEMEGDYQETWKATGSRSYSPDHRQKKHRKLSELERPHKVSHGHERRDERKRCHRMSPTYSSDPESSDYGHVQSPPSCTSPHQMYVDHYRSLEEDQEPIVSHQKPGKGHSNAFQDRLGASQERHLGEPHGKGVVSQNKEHKSSHKDKRPVDAKSDEKASVVSREKSHKALSKEENRRPPSGDNAREKPPSSGVKKEKDREGSSLKKKCLPPSEAASDNHLKKPKHRDPEKAKLDKSKQGLDSFDTGKGAGDLLPKVKEKGSNNLKTPEGKVKTNLDRKSLGSLPKVEETDMEDEFEQPTMSFESYLSYDQPRKKKKKIVKTSATALGDKGLKKNDSKSTGKNLDSVQKLPKVNKTKSEKPAGADLAKLRKVPDVLPVLPDLPLPAIQANYRPLPSLELISSFQPKRKAFSSPQEEEEAGFTGRRMNSKMQVYSGSKCAYLPKMMTLHQQCIRVLKNNIDSIFEVGGVPYSVLEPVLERCTPDQLYRIEEYNHVLIEETDQLWKVHCHRDFKEERPEEYESWREMYLRLQDAREQRLRVLTKNIQFAHANKPKGRQAKMAFVNSVAKPPRDVRRRQEKFGTGGAAVPEKIKIKPAPYPMGSSHASASSISFNPSPEEPAYDGPSTSSAHLAPVVSSTVSYDPRKPTVKKIAPMMAKTIKAFKNRFSRR
In the case of B3, the binding result in assay [1] and in assay [4] was “binds” throughout.

B4: ZC3H18 (protein, UniProt Q86VM9 1-953)
chain: MDVAESPERDPHSPEDEEQPQGLSDDDILRDSGSDQDLDGAGVRASDLEDEESAARGPSQEEEDNHSDEEDRASEPKSQDQDSEVNELSRGPTSSPCEEEGDEGEEDRTSDLRDEASSVTRELDEHELDYDEEVPEEPAPAVQEDEAEKAGAEDDEEKGEGTPREEGKAGVQSVGEKESLEAAKEKKKEDDDGEIDDGEIDDDDLEEGEVKDPSDRKVRPRPTCRFFMKGNCTWGMNCRFIHPGVNDKGNYSLITKADPFPPNGAPPLGPHPLMPANPWGGPVVDEILPPPPPEPPTESAWERGLRHAKEVLKKATIRKEQEPDFEEKRFTVTIGEDEREFDKENEVFRDWNSRIPRDVRDTVLEPYADPYYDYEIERFWRGGQYENFRVQYTETEPYHNYRERERERERENRQRERERERERDRERERRQRERERERERERDKERQRRKEEWERERAKRDEKDRQHRDRDREKEREKEKGKPKPRSPQPPSRQAEPPKKEAATTGPQVKRADEWKDPWRRSKSPKKKLGVSVSPSRARRRRKTSASSASASNSSRSSSRSSSYSGSGSSRSRSRSSSYSSYSSRSSRHSSFSGSRSRSRSFSSSPSPSPTPSPHRPSIRTKGEPAPPPGKAGEKSVKKPAPPPAPPQATKTTAPVPEPTKPGDPREARRKERPARTPPRRRTLSGSGSGSGSSYSGSSSRSRSLSVSSVSSVSSATSSSSSAHSVDSEDMYADLASPVSSASSRSPAPAQTRKEKGKSKKEDGVKEEKRKRDSSTQPPKSAKPPAGGKSSQQPSTPQQAPPGQPQQGTFVAHKEIKLTLLNKAADKGSRKRYEPSDKDRQSPPPAKRPNTSPDRGSRDRKSGGRLGSPKPERQRGQNSKAPAAPADRKRQLSPQSKSSSKVTSVPGKASDPGAASTKSGKASTLSRREELLKQLKAVEDAIARKRAKIPGKA
B4: the binding result in assay [1] and in assay [4] was “binds” each time.
